PubChem BioAssay AID1224830 | NIAID | 2016
Aim: 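Regulators of TLR4 signalling towards TNF-alpha in macrophage-like cells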 (primary screen). Cells: human THP-1 monocytic leukaemia cells, TNF dual-luciferase reporter clone, PMA-differentiated to macrophage-like cells. Knock-down reagent: siRNA pool against human genes, 50 nM. Time to read-out: LPS for 4 h, given about 3 days after siRNA transfection. Treatment: bacterial LPS (TLR4 ligand), 10 ng/ml. Detection: 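TNF firefly reporter luminescence divided by renilla, normalised to the plate median, then turned into a robust z-score for each replicate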. Reading the numbers: TNF reporter robust z-score: higher = stronger TNF reporter response to LPS. Active means: 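Each well counts as active if its z-score is over 2.8 or under -1.5; controls are left without a call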.
Shown is a random part of about 18,000 reagents tested. Of all reagents, about 2,900 (16%) got an active call. 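Calls are made per well; low scores hint the gene aids the LPS response, high scores that it dampens it.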 Unmarked entries are inactive. Repeated entries: four replicate wells of each siRNA pool.

Depletion of AHNAK (AHNAK nucleoprotein) resulted in: TNF reporter robust z-score -0.75.
For AHNAK (AHNAK nucleoprotein), the values are TNF reporter robust z-score -0.87.
With knock-down of AHNAK (AHNAK nucleoprotein), the record shows TNF reporter robust z-score -0.13.
With knock-down of AHNAK (AHNAK nucleoprotein), the record shows TNF reporter robust z-score -0.25.
After knock-down of MPI (mannose phosphate isomerase), the screen gave TNF reporter robust z-score -0.02.
Silencing of MPI (mannose phosphate isomerase) resulted in: TNF reporter robust z-score 0.24.
With knock-down of MPI (mannose phosphate isomerase), the record shows TNF reporter robust z-score -0.54.
For MPI (mannose phosphate isomerase), the values are TNF reporter robust z-score -0.17.

Laid out differently: entries from further up
{"gene": "MPI (mannose phosphate isomerase)", "TNF reporter robust z-score": 0.24}
{"gene": "MPI (mannose phosphate isomerase)", "TNF reporter robust z-score": -0.54}
{"gene": "MPI (mannose phosphate isomerase)", "TNF reporter robust z-score": -0.17}

More reagents:
Against FAS (Fas cell surface death receptor), the values are TNF reporter robust z-score 0.65.
Against FAS (Fas cell surface death receptor), the entry reads TNF reporter robust z-score 1.17.
After knock-down of FAS (Fas cell surface death receptor), the record shows TNF reporter robust z-score -0.59.
Against FAS (Fas cell surface death receptor) the deposit lists TNF reporter robust z-score 0.24.
BSN (bassoon presynaptic cytomatrix protein) scored TNF reporter robust z-score -0.06.
After knock-down of BSN (bassoon presynaptic cytomatrix protein), the record shows TNF reporter robust z-score 1.3.
BSN (bassoon presynaptic cytomatrix protein) scored TNF reporter robust z-score 0.11.
With knock-down of BSN (bassoon presynaptic cytomatrix protein), the screen gave TNF reporter robust z-score -0.25.
FAM32A (family with sequence similarity 32 member A) scored TNF reporter robust z-score -0.99.
After knock-down of FAM32A (family with sequence similarity 32 member A), the screen gave TNF reporter robust z-score -1.23.
FAM32A (family with sequence similarity 32 member A) gave TNF reporter robust z-score -1.21.
FAM32A (family with sequence similarity 32 member A) showed TNF reporter robust z-score -0.17.
